{"source": "PubChem BioAssay AID743454 (Peter MacCallum Cancer Centre, 2014)", "test": "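Knock-downs lowering viability or raising caspase 3/7 activity in vorinostat-treated resistant cells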 (primary screen)", "cells": "human HCT116-VR colon cancer cells, selected for vorinostat resistance", "knock-down reagent": "siRNA pool against human genes, 40 nM siRNA pool", "time to read-out": "vorinostat for 24 h, read-out about 72 h after transfection", "conditions": "vorinostat at 2.5 µM final", "measured": "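Two measures, CellTiter-Fluor viability and luminescent caspase 3/7 activity, each as fold change against same-plate mock wells, mean of duplicates, then screen-wide robust z-score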", "reading the numbers": "viability robust z-score: higher = more viable cells than screen typical; caspase robust z-score: higher = more caspase 3/7 activity than screen typical", "call rule": "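a knock-down is a hit when classed RV1 or RV2 for lowered viability, or CA1 or CA2 for caspase activation; those lethal without drug were dropped; hits were retested singly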", "note": "In all, the deposit lists about 18,000 reagents; below is a part drawn at random. 450 of them (2.5%) were called active. 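Single biological run; no consistent viability z cut-off exists, so the class columns, not z-scores, define the calls.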"}
{"Target gene": "RASD2", "PubChem SID": "SID134314292", "viability hit class": "no change", "caspase hit class": "no change", "viability robust z-score": -0.31, "caspase robust z-score": 5.08, "Outcome": "inactive"}
{"Target gene": "POU3F3", "PubChem SID": "SID135623922", "viability hit class": "no change", "caspase hit class": "no change", "viability robust z-score": -0.18, "caspase robust z-score": 0.12, "Outcome": "inactive"}
{"Target gene": "PPARD", "PubChem SID": "SID152153001", "viability hit class": "no change", "caspase hit class": "no change", "viability robust z-score": -0.88, "caspase robust z-score": 0, "Outcome": "inactive"}
{"Target gene": "PRDM1", "PubChem SID": "SID135621747", "viability hit class": "no change", "caspase hit class": "no change", "viability robust z-score": 0.66, "caspase robust z-score": -0.48, "Outcome": "inactive"}
{"Target gene": "POGLUT3", "PubChem SID": "SID135622985", "viability hit class": "no change", "caspase hit class": "no change", "viability robust z-score": 1.41, "caspase robust z-score": -0.38, "Outcome": "inactive"}
{"Target gene": "ELK3", "PubChem SID": "SID134314893", "viability hit class": "no change", "caspase hit class": "no change", "viability robust z-score": 0.16, "caspase robust z-score": -1.06, "Outcome": "inactive"}
{"Target gene": "ATG2B", "PubChem SID": "SID135623214", "viability hit class": "no change", "caspase hit class": "no change", "viability robust z-score": 0.22, "caspase robust z-score": -0.8, "Outcome": "inactive"}
{"Target gene": "SPHK2", "PubChem SID": "SID56478885", "viability hit class": "no change", "caspase hit class": "no change", "viability robust z-score": 0.04, "caspase robust z-score": 0.52, "Outcome": "inactive"}
{"Target gene": "MTX3", "PubChem SID": "SID135624458", "viability hit class": "no change", "caspase hit class": "no change", "viability robust z-score": -0.02, "caspase robust z-score": -1.08, "Outcome": "inactive"}
{"Target gene": "AFG3L2", "PubChem SID": "SID134311209", "viability hit class": "no change", "caspase hit class": "no change", "viability robust z-score": -1.64, "caspase robust z-score": 0.7, "Outcome": "inactive"}
{"Target gene": "LEPROT", "PubChem SID": "SID152152272", "viability hit class": "no change", "caspase hit class": "no change", "viability robust z-score": 0.72, "caspase robust z-score": -0.4, "Outcome": "inactive"}
{"Target gene": "SFMBT1", "PubChem SID": "SID135624082", "viability hit class": "no change", "caspase hit class": "no change", "viability robust z-score": 0.68, "caspase robust z-score": -0.34, "Outcome": "inactive"}
{"Target gene": "FAABTP", "PubChem SID": "SID152147041", "viability hit class": "no change", "caspase hit class": "no change", "viability robust z-score": 0.46, "caspase robust z-score": -0.32, "Outcome": "inactive"}
{"Target gene": "ELOVL6", "PubChem SID": "SID135621661", "viability hit class": "no change", "caspase hit class": "no change", "viability robust z-score": -0.08, "caspase robust z-score": -0.34, "Outcome": "inactive"}
{"Target gene": "ARL8B", "PubChem SID": "SID134324017", "viability hit class": "no change", "caspase hit class": "no change", "viability robust z-score": 0.88, "caspase robust z-score": -0.5, "Outcome": "inactive"}
{"Target gene": "DTD2", "PubChem SID": "SID152148234", "viability hit class": "no change", "caspase hit class": "no change", "viability robust z-score": 0.08, "caspase robust z-score": -0.97, "Outcome": "inactive"}
{"Target gene": "RASSF6", "PubChem SID": "SID134322323", "viability hit class": "no change", "caspase hit class": "no change", "viability robust z-score": 0.76, "caspase robust z-score": 2.06, "Outcome": "inactive"}
{"Target gene": "RPL36", "PubChem SID": "SID152155137", "viability hit class": "no change", "caspase hit class": "no change", "viability robust z-score": -3.46, "caspase robust z-score": -0.82, "Outcome": "inactive"}
{"Target gene": "GARRE1", "PubChem SID": "SID135624083", "viability hit class": "no change", "caspase hit class": "no change", "viability robust z-score": 1.76, "caspase robust z-score": 1.36, "Outcome": "inactive"}
{"Target gene": "CD1D", "PubChem SID": "SID152155067", "viability hit class": "no change", "caspase hit class": "no change", "viability robust z-score": -0.64, "caspase robust z-score": -0.54, "Outcome": "inactive"}
{"Target gene": "CHD3", "PubChem SID": "SID152147552", "viability hit class": "no change", "caspase hit class": "no change", "viability robust z-score": 1.3, "caspase robust z-score": 1.6, "Outcome": "inactive"}

Just “caspase hit class”, for 2 of the entries above:
DTD2 [SID152148234] = no change
RASSF6 [SID134322323] = no change
